Results deposited as PubChem BioAssay AID1224830 (NIAID, 2016)
Shown is an unselected part of about 18,000 reagents. In the full data, about 2,900 (16%) got an active call. 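Calls are made per well; low scores hint the gene aids the LPS response, high scores that it dampens it.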 Entries without a mark were called inactive. Repeated entries: four replicate wells of each siRNA pool.

Screen: 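Regulators of TLR4 signalling towards TNF-alpha in macrophage-like cells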 (primary screen)
System: human THP-1 monocytic leukaemia cells, TNF dual-luciferase reporter clone, PMA-differentiated to macrophage-like cells
Reagents: siRNA pool against human genes, 50 nM
Timing: LPS for 4 h, given about 3 days after siRNA transfection
Treatment: bacterial LPS (TLR4 ligand), 10 ng/ml
Detection: 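Ratio of firefly to renilla light, scaled to the plate median and expressed as a robust z-score per replicate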
Reading the numbers: TNF reporter robust z-score: higher = stronger TNF reporter response to LPS
Hit rule: 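Each well counts as active if its z-score is over 2.8 or under -1.5; controls are left without a call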

| target gene | TNF reporter robust z-score |
| --- | --- |
| CD19 | 0.11 |
| CD19 | -0.66 |
| CD19 | -0.01 |
| CD19 | 0.62 |
| TSPAN15 | 1.13 |
| TSPAN15 | 0.41 |
| TSPAN15 | 0.69 |
| TSPAN15 | 1.51 |
| C19orf33 | -0.84 |
| C19orf33 | -0.74 |
| C19orf33 | -1 |
| C19orf33 | 0.04 |
| FBLN7 | -0.22 |
| FBLN7 | 0.07 |
| FBLN7 | -0.1 |
| FBLN7 | 0.26 |
| NLRP6 | 1.48 |
| NLRP6 | 2.19 |
| NLRP6 | 0.68 |
| NLRP6 | 0.53 |
| GRPEL1 | -0.04 |
| GRPEL1 | 0.39 |
| GRPEL1 | -0.26 |
| GRPEL1 | -0.22 |
| VDAC3 | -0.91 |
| VDAC3 | 0.05 |
| VDAC3 | -0.74 |
| VDAC3 | 0.5 |
| SLC22A23 | 0.41 |
| SLC22A23 | -0.21 |
| SLC22A23 | -0.1 |
| SLC22A23 | 0.28 |
| ARPC5 | 3.04 (active) |
| ARPC5 | 1.35 |
| ARPC5 | 0.1 |
| ARPC5 | 1.89 |
| ZNF574 | 2.31 |
| ZNF574 | 3.03 (active) |
| ZNF574 | 0.86 |
| ZNF574 | 0.87 |
| RNFT2 | -0.4 |
| RNFT2 | -1.1 |
| RNFT2 | 0.46 |
| RNFT2 | 2.77 |
| OR5L2 | -0.99 |
| OR5L2 | -0.68 |
| OR5L2 | -1.04 |
| OR5L2 | -1.96 (active) |
| TEX14 | -1.03 |
| TEX14 | -0.25 |
| TEX14 | -0.46 |
| TEX14 | -0.41 |
| RFX3 | -0.12 |
| RFX3 | 3.43 (active) |
| RFX3 | 0.26 |
| RFX3 | 0.85 |
| HAUS6 | -0.07 |
| HAUS6 | 0.61 |
| HAUS6 | -0.36 |
| HAUS6 | -0.1 |
| ARHGEF9 | -0.86 |
| ARHGEF9 | -0.07 |
| ARHGEF9 | 0.3 |
| ARHGEF9 | 0.61 |
| ZNF143 | 0.22 |
| ZNF143 | 1.8 |
| ZNF143 | -0.07 |
| ZNF143 | 0.47 |
| AHI1 | 2.09 |
| AHI1 | 1.35 |
| AHI1 | -0.85 |
| AHI1 | 0.17 |
| THEMIS2 | 1.2 |
| THEMIS2 | 1.34 |
| THEMIS2 | -0.15 |
| THEMIS2 | 1.12 |
| ARMC8 | 1.04 |
| ARMC8 | 1.29 |
| ARMC8 | 0.37 |
| ARMC8 | 0 |
| REC8 | -0.92 |
| REC8 | -0.39 |
| REC8 | -0.32 |
| REC8 | -0.8 |

Entries listed so far whose target name begins with R or r (12):
| target gene | TNF reporter robust z-score |
| --- | --- |
| RNFT2 | -0.4 |
| RNFT2 | -1.1 |
| RNFT2 | 0.46 |
| RNFT2 | 2.77 |
| RFX3 | -0.12 |
| RFX3 | 3.43 (active) |
| RFX3 | 0.26 |
| RFX3 | 0.85 |
| REC8 | -0.92 |
| REC8 | -0.39 |
| REC8 | -0.32 |
| REC8 | -0.8 |

The listing continues:
| target gene | TNF reporter robust z-score |
| --- | --- |
| CH25H | 0.35 |
| CH25H | 1.06 |
| CH25H | 0.13 |
| CH25H | 0.34 |
| MTCH2 | 0.27 |
| MTCH2 | 0.85 |
| MTCH2 | -0.22 |
| MTCH2 | -0.17 |
| ZNF692 | -0.55 |
| ZNF692 | -0.07 |
| ZNF692 | -0.17 |
| FAM114A2 | -0.08 |
| FAM114A2 | 1.06 |
| FAM114A2 | 0.8 |
| FAM114A2 | 1.78 |
| GREB1 | 0.1 |
| GREB1 | 0.98 |
| GREB1 | 0.33 |
| GREB1 | 0.68 |
| PLXND1 | 0.44 |
| PLXND1 | 0.28 |
| PLXND1 | 0.47 |
| PLXND1 | 0.55 |
| HJURP | 0.07 |
| HJURP | 0.14 |
| HJURP | -0.58 |
| HJURP | -0.05 |
| AADACL4 | -0.46 |
| AADACL4 | -0.77 |
| AADACL4 | -0.37 |
| AADACL4 | 0.53 |
| EBF1 | -0.37 |
| EBF1 | 2.47 |
| EBF1 | 1.4 |
| EBF1 | 2.37 |
| SIGIRR | -0.24 |
| SIGIRR | 1.29 |
| SIGIRR | 0.24 |
| SIGIRR | 1.71 |
| DLL4 | 0.15 |
| DLL4 | 0.4 |
| DLL4 | -0.3 |
| DLL4 | 0.7 |
| CFC1 | -0.02 |
| CFC1 | 0.81 |
| CFC1 | 0.41 |
| CFC1 | 0.67 |
| ZNF593 | 0.43 |
| ZNF593 | 0.38 |
| ZNF593 | -1.21 |
| ZNF593 | -0.69 |
| CAPN9 | 0.33 |
| CAPN9 | -0.56 |
| CAPN9 | 0.87 |
| CAPN9 | 1.3 |
| ZNF420 | 0.23 |
| ZNF420 | -0.52 |
| ZNF420 | -0.45 |
| ZNF420 | -0.12 |
